# From the supplement of paper PMC12823440, “Inhibitors supercharge kinase turnover through native proteolytic circuits” (Nature, 2025)
# Chains of the proteins cited; added tags and fusions are not shown. Lines headed by an entry give the natural chain unless they say otherwise; changes in a name come on top.
# UniProt P48729: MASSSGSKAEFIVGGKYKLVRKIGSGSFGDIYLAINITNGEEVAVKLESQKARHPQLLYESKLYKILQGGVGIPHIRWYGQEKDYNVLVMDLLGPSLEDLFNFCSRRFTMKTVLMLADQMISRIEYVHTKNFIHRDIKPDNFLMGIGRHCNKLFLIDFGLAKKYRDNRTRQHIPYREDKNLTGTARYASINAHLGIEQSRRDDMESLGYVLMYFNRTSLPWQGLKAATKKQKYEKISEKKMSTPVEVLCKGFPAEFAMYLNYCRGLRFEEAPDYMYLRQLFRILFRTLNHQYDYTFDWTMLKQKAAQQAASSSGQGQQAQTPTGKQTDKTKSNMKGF
# UniProt P48730: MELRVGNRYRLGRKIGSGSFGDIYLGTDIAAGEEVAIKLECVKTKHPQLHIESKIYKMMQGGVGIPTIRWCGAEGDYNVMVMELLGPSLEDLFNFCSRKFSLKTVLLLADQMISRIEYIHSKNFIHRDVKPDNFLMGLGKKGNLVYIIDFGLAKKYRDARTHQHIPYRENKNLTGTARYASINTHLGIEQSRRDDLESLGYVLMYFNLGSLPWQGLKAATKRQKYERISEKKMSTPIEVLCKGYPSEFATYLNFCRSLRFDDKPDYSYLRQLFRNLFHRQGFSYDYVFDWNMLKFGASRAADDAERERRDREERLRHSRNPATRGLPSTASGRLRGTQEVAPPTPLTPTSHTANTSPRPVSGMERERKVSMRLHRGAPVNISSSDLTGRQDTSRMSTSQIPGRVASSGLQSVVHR
# UniProt Q08345: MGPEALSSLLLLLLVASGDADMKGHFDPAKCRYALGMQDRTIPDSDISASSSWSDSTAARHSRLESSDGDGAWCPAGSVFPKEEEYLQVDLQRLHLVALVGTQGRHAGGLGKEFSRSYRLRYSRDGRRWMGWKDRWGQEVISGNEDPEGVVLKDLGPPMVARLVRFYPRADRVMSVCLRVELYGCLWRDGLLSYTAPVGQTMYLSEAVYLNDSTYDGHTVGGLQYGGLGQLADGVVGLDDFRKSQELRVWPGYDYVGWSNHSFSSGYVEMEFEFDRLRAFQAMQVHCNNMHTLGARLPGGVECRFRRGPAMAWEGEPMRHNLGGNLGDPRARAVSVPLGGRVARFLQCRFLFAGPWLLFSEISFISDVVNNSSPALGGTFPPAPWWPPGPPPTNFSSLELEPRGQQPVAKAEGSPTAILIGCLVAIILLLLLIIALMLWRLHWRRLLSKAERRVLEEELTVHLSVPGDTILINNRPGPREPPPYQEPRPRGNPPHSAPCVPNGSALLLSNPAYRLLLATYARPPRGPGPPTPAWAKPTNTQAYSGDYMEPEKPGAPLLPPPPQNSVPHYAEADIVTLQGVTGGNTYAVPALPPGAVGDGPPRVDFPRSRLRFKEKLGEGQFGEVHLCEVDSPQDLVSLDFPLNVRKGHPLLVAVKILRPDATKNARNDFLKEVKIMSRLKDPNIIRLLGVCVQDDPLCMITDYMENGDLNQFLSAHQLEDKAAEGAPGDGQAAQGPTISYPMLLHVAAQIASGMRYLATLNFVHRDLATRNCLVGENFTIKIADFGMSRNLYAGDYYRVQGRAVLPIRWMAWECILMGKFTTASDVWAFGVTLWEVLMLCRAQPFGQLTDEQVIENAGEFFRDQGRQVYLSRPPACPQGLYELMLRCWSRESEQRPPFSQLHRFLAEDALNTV
# UniProt Q9Y463, whole entry, looked up: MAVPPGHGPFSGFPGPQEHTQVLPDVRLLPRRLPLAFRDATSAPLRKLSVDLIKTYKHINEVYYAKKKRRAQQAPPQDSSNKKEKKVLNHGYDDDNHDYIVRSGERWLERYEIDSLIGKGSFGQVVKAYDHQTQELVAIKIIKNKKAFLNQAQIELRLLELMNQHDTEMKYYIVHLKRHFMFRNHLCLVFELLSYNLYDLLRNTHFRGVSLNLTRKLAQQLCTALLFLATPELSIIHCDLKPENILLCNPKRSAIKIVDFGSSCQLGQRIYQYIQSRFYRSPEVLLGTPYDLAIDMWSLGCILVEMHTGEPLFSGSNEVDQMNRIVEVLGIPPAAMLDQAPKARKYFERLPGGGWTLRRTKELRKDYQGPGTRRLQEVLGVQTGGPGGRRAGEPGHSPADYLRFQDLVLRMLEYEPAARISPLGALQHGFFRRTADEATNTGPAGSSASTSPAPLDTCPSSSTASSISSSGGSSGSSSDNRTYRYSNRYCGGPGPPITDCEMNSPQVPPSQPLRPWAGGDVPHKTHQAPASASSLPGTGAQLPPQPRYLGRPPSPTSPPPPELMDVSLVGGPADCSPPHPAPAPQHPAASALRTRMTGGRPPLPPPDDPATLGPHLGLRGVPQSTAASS
# UniProt Q92630: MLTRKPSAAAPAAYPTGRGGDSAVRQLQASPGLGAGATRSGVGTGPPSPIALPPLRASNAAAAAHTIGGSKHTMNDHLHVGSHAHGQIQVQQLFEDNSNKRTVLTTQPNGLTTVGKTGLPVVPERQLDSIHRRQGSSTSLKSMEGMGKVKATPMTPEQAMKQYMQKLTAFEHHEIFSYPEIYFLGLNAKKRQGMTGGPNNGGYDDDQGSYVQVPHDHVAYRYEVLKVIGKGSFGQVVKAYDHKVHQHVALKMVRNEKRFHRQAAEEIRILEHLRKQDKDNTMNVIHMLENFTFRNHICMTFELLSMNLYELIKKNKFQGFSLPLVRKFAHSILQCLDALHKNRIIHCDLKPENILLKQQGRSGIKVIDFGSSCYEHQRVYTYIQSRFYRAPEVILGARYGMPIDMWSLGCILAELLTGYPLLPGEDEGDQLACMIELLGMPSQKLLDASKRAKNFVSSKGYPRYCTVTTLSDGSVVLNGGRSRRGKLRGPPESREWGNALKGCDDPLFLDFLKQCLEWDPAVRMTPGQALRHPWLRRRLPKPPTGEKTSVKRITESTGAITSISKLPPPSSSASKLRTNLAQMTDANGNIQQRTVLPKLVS
# Where a name gives a salt, the structure may show the parent alone. The list shows a part of the results. Hit calls seldom repeat between salt and free forms of one compound.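 Kinases were expressed as nanoluciferase fusions in K562 cells and luminescence was read every 4 h between 2 and 18 h as percent of control, DMSO set to 100% and a positive control to 0%. A time point counts as decreased when the signal drops significantly (2 sigma). The hit call is the authors' own, does not follow from the count of time points alone, and its rule is not shown.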
# Experiments:
# Test in all cases: number of time points (of 5) at which kinase-Nluc abundance scored as decreased, DMSO-normalised (count); higher = more persistent destabilization
# Conditions in all cases: K562; 2-18 h
# CSNK1A1 = CSNK1A1 (UniProt P48729)
# CSNK1D = CSNK1D (UniProt P48730)
# DDR1 = DDR1 (UniProt Q08345)
# DYRK1B = DYRK1B (UniProt Q9Y463)
# DYRK2 = DYRK2 (UniProt Q92630)
# EGFR = EGFR (UniProt P00533)
# EGFR_G719S = EGFR_G719S (UniProt P00533)
# EGFR_G719S_T790M = EGFR_G719S_T790M (UniProt P00533)
# EGFR_L718V = EGFR_L718V (UniProt P00533)
# EGFR_L858R = EGFR_L858R (UniProt P00533)
SMILES,number of time points (CSNK1A1),number of time points (CSNK1D),number of time points (DDR1),number of time points (DYRK1B),number of time points (DYRK2),number of time points (EGFR),number of time points (EGFR_G719S),number of time points (EGFR_G719S_T790M),number of time points (EGFR_L718V),number of time points (EGFR_L858R)
CC(C)n1nc(C#Cc2ccccc2)c2c(N)ncnc21 (10 µM),0,0,0,1,3,0,3,0,0,0
COc1cccc(Nc2ncnn3ccc(CN4CC[C@@H](N)[C@H](O)C4)c23)c1 (2.5 µM),0,0,1,0,3,0,2,0,0,0
CNC(=O)c1nnc(NC(=O)C2CC2)cc1Nc1cccc(-c2ncn(C)n2)c1OC [Deucravacitinib] (10 µM),0,0,0,0,0,0,0,0,0,0
C=CC(=O)Nc1cccc(Nc2nc(Nc3ccc(Oc4ccnc(C(=O)NC)c4)cc3)ncc2F)c1 (2.5 µM),0,0,0,0,0,0,0,0,0,0
O=C(c1ccc(NS(=O)(=O)c2cccc3cccnc23)cc1)N1CCN(CC2CC2)CC1 [Mitapivat] (10 µM),0,0,0,0,0,0,0,0,0,0
Cc1ccc(Nc2c(C(N)=O)cnc3cc(-c4ccncc4)ccc23)cc1C [cFMS Receptor Inhibitor II] (10 µM),0,0,0,0,0,0,0,0,0,0
Cc1nc(Nc2ncc(C(=O)Nc3c(C)cccc3Cl)s2)cc(N2CCN(C(=O)CCCCCCC(=O)N[C@H](C(=O)N3C[C@H](O)C[C@H]3C(=O)NCc3ccc(-c4scnc4C)cc3)C(C)(C)C)CC2)n1 (2.5 µM),2,3,4,1,4,2,1,0,2,2
O=C1NCCSc2c1sc1ccc(O)cc21 (2.5 µM),0,0,0,0,0,0,0,0,0,0
Nc1nc2c(ncn2COCCO)c(=O)[nH]1 [Acyclovir] (10 µM),0,0,0,0,0,0,0,0,0,0
Cc1cc(F)c(Nc2ncnc3cc(OCc4ccccc4)ccc23)cc1O (10 µM),0,0,0,0,0,0,0,0,0,0
CCc1ccc(NC(=O)Nc2ccccc2)cc1 (10 µM),0,0,0,0,0,0,0,1,0,0
CC(C)(C)S(=O)(=O)c1cc2c(Nc3ccc4scnc4c3)ccnc2cc1OCCOCCOCCOCCOCC(=O)Nc1cccc2c1CN(C1CCC(=O)NC1=O)C2=O (stereo not given) [PROTAC RIPK degrader-6] (10 µM),0,0,0,0,0,0,0,0,0,0
COc1ccc(COc2cc3oc(=O)c4cc(C(C)O)ccc4c3cc2OC)cc1 (stereo not given) [Palomid 529] (2.5 µM),0,0,0,0,0,0,0,0,0,0
CC(C)[C@H](CO)Nc1nc(Nc2ccc(C(=O)O)c(Cl)c2)c2ncn(C(C)C)c2n1 [Purvalanol B] (10 µM),0,0,0,0,0,0,0,0,0,0
O=C(Nc1cc(Cl)cc(Cl)c1)Nc1cc(Cl)cc(Cl)c1 (10 µM),0,0,0,0,3,0,0,0,0,0
CCCC[C@H](CO)Nc1nc(NC)ncc1OC [Interferon receptor inducer-1] (10 µM),0,0,0,0,0,0,0,0,0,0
CC(C)=CCC/C(C)=C/CC/C(C)=C/CSc1ccccc1C(=O)O [Salirasib] (10 µM),0,0,0,0,0,0,0,0,0,0
Nc1n[nH]c(N)c1N=Nc1ccc(O)cc1 (10 µM),0,0,0,0,0,0,0,0,0,0

# Copied from the list.
# number of time points (DDR1), Cc1cc(F)c(Nc2ncnc3cc(OCc4ccccc4)ccc23)cc1O (10 µM) reads 0
# number of time points (DDR1), CC(C)n1nc(C#Cc2ccccc2)c2c(N)ncnc21 (10 µM) reads 0

# Quoted at random: two compounds from above.
SMILES,number of time points (CSNK1A1),number of time points (CSNK1D),number of time points (DDR1),number of time points (DYRK1B),number of time points (DYRK2),number of time points (EGFR),number of time points (EGFR_G719S),number of time points (EGFR_G719S_T790M),number of time points (EGFR_L718V),number of time points (EGFR_L858R)
Cc1nc(Nc2ncc(C(=O)Nc3c(C)cccc3Cl)s2)cc(N2CCN(C(=O)CCCCCCC(=O)N[C@H](C(=O)N3C[C@H](O)C[C@H]3C(=O)NCc3ccc(-c4scnc4C)cc3)C(C)(C)C)CC2)n1 (2.5 µM),2,3,4,1,4,2,1,0,2,2
CNC(=O)c1nnc(NC(=O)C2CC2)cc1Nc1cccc(-c2ncn(C)n2)c1OC [Deucravacitinib] (10 µM),0,0,0,0,0,0,0,0,0,0

# The list continues.

SMILES,number of time points (CSNK1A1),number of time points (CSNK1D),number of time points (DDR1),number of time points (DYRK1B),number of time points (DYRK2),number of time points (EGFR),number of time points (EGFR_G719S),number of time points (EGFR_G719S_T790M),number of time points (EGFR_L718V),number of time points (EGFR_L858R)
O=c1cc(-c2ccc(O)cc2)oc2cc(O)c([C@@H]3O[C@H](CO)[C@@H](O)[C@H](O)[C@H]3O)c(O)c12 [Isovitexin] (10 µM),0,0,0,0,0,0,0,0,0,0
CCOc1cc(C(=O)N2CCC(N3CCN(C)CC3)CC2)ccc1Nc1ncc2c(n1)N(S(C)(=O)=O)c1ccccc1C(=O)N2C (10 µM),0,0,0,0,0,0,0,0,0,0
O=c1cc(-c2ccc(O)cc2)oc2cc(O)c(O)c(O)c12 [Scutellarein] (10 µM),0,0,0,0,0,0,0,0,0,0
COC(=O)[C@]1(C)CC[C@]2(C(=O)O[C@@H]3O[C@H](CO)[C@@H](O)[C@H](O)[C@H]3O)CC[C@]3(C)C(=CC[C@@H]4[C@@]5(C)C[C@H](O)[C@H](O[C@@H]6OC[C@@H](O[C@@H]7O[C@H](CO)[C@@H](O)[C@H](O)[C@H]7O)[C@H](O)[C@H]6O)[C@@](C)(CO)C5CC[C@]43C)[C@H]2C1 (stereo not given in full) [Esculentoside H] (10 µM),0,0,0,0,0,0,0,0,0,0
O=C(O)/C=C/c1cc(Br)c(Br)c(Br)c1Br (10 µM),0,0,0,0,0,0,0,0,0,0
N#Cc1c[nH]c2ccc(-c3ccc(-c4c(O)cccc4O)cc3)cc12 (10 µM),0,0,0,0,0,0,0,0,0,0
C=CC(=O)Nc1cc(C(=O)NC)cc(-c2n[nH]c3ccccc23)c1 (10 µM),0,0,0,0,0,0,0,0,0,0
CCCCCC1CC1CC1CC1CCCCCCCC(=O)O (stereo not given) (10 µM),0,0,0,0,0,0,0,0,0,0
C[C@@H]1CC[C@]2(C(=O)O)CC[C@]3(C)C(=CC[C@@H]4[C@@]5(C)CC[C@H](O)[C@@](C)(CO)[C@@H]5CC[C@]43C)[C@@H]2[C@]1(C)O [Rotundic acid] (10 µM),0,0,0,0,0,0,0,0,0,0
Clc1ccc(Nc2cccc(-c3cn[nH]c3)c2)cc1 (10 µM),0,0,0,0,0,0,0,0,0,0
Cn1cc(C2=C(c3c4n(c5ccccc35)CCC(CN)C4)C(=O)NC2=O)c2ccccc21 (stereo not given) [Bisindolylmaleimide X (hydrochloride)] (2.5 µM),0,0,0,0,0,0,0,0,0,0
C[C@@H]1O[C@@H](O[C@H]2[C@H](OC(=O)[C@]34CCC(C)(C)C[C@H]3C3=CC[C@@H]5[C@@]6(C)C[C@H](O)[C@H](O[C@@H]7O[C@H](CO)[C@@H](O)[C@H](O)[C@H]7O)C(CO)(CO)[C@@H]6CC[C@@]5(C)[C@]3(C)C[C@H]4O)OC[C@H](O)[C@@H]2O)[C@H](O)[C@H](O)[C@H]1O[C@@H]1OC[C@@H](O)[C@H](O[C@@H]2OC[C@](O)(CO)[C@H]2O)[C@H]1O [Platycodin D] (10 µM),0,0,0,0,0,0,0,0,0,0
CCc1nc(C(N)=O)c(Nc2ccc(N3CCC(N4CCN(C)CC4)CC3)c(OC)c2)nc1NC1CCC(OC)CC1 (stereo not given) [EML4-ALK kinase inhibitor 1] (2.5 µM),0,0,0,0,0,0,0,0,0,0
CS(=O)(=O)N1CCc2c(-c3cnc(N)nc3)nc(N3CCOCC3)nc21 (10 µM),0,0,1,0,0,0,0,0,0,0
Cn1cc(-c2ccc3ncc(Cc4ccc5ncccc5c4)n3n2)cn1 (10 µM),0,0,0,0,0,0,0,0,0,0
CN(C/C=C/C(=O)Nc1ccc(C(=O)Nc2cccc(Nc3ncc(Cl)c(-c4c[nH]c5ccccc45)n3)c2)cc1)CCCNC(=O)NCCOCCOCCOCCNC(=O)CCCC[C@@H]1SC[C@@H]2NC(=O)N[C@@H]21 (2.5 µM),0,0,0,0,0,1,2,1,1,2
COc1ccc(-c2cnc3c(-c4cccc5ncccc45)cnn3c2)cc1 (10 µM),0,0,0,0,0,0,0,0,0,0
